# Measured values reported in the supplement of paper PMC12889115.
# This is one part of the list. These are raw signals, not scaled to a control.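 Primary screen: polymyxin B was added at a level permeabilizing Salmonella outer membranes while sparing inner membranes. DMSO wells, both with and without polymyxin B, established maximum growth. Plate-to-plate variation meant each plate was ranked on its own, and the lowest-OD600 compounds were selected as hits.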
# Tested on: Salmonella enterica serovar Typhimurium SL1344
# Assay: bacterial growth OD600 after 18 h with compound and polymyxin B; higher = more bacterial growth (less inhibition)
# Conditions: 50 µM, Mueller-Hinton broth
smiles,measurement,setting,value
Cc1ccccc1CC(=O)N1CCC(C2(Cc3cccc(F)c3)NC(=O)N(CCN(C)C)C2=O)CC1 (stereo unspecified),bacterial growth OD600,polymyxin B 0.75 µg/mL,0.844
CC(=O)N[C@@H]1c2ccccc2C2(CCN(Cc3cccc4nccnc34)CC2)[C@H]1OCc1ccccc1,bacterial growth OD600,polymyxin B 0.75 µg/mL,0.869
Cc1cc(C)c(CN2CCC(N3CCC(C(=O)NCC4CCCO4)CC3)CC2)cc1C (stereo unspecified),bacterial growth OD600,polymyxin B 1 µg/mL,0.818
CC(C)(C)C(=O)N1CCC(C2CCN(Cc3cccnc3)CC2)C1 (stereo unspecified),bacterial growth OD600,polymyxin B 0.75 µg/mL,0.842
CC(C)c1nccn1Cc1cc(C(=O)NCCC2CCCCO2)n[nH]1 (stereo unspecified),bacterial growth OD600,polymyxin B 0.75 µg/mL,0.832
CCc1csc(CNC(=O)c2ccc(N(C)C(C)C)nc2)n1,bacterial growth OD600,polymyxin B 1 µg/mL,0.754
COc1cc(-c2ccc(C)s2)cc2c1OCCN(C1CCCC1)C2,bacterial growth OD600,polymyxin B 0.75 µg/mL,0.747
O=C(NC1CCCCC1)C1CCCN(C2CCN(Cc3ccccc3)CC2)C1 (stereo unspecified),bacterial growth OD600,polymyxin B 0.75 µg/mL,0.885
Cc1ccc(-c2n[nH]cc2CN2CCN(c3ccccn3)CC2)cc1C,bacterial growth OD600,polymyxin B 1 µg/mL,0.115
O=C(NCCc1cccc2ccccc12)c1cc(CN2CCOCC2)on1,bacterial growth OD600,polymyxin B 1 µg/mL,1.1
COc1cccc(-c2ccc(NC(=O)C3CCCN3Cc3cccnc3)cc2)c1 (stereo unspecified),bacterial growth OD600,polymyxin B 0.75 µg/mL,0.524
COc1ccc(CC2(CCC(=O)NCc3nc(-c4ccccc4)no3)CCC(=O)N2)c(F)c1 (stereo unspecified),bacterial growth OD600,polymyxin B 0.75 µg/mL,0.683
CSc1ccccc1C(=O)N1CCCC(CCC(=O)NC2CC2)C1 (stereo unspecified),bacterial growth OD600,polymyxin B 1 µg/mL,1.05
O=C1N(Cc2cccc(F)c2F)CCCC1(O)CN1CCOCC1 (stereo unspecified),bacterial growth OD600,polymyxin B 1 µg/mL,0.892
COc1cccc(CN2C[C@@H]3C[C@@H](c4cccs4)N4CCC[C@@]34C2=O)c1,bacterial growth OD600,polymyxin B 0.75 µg/mL,0.79
O=C(CCc1ccncc1)N1CCCC(CCc2ccc(F)c(F)c2)C1 (stereo unspecified),bacterial growth OD600,polymyxin B 0.75 µg/mL,0.003
COc1cc(C(=O)NCCCC2CCCC2)ccc1OC1CCN(C(C)=O)CC1,bacterial growth OD600,polymyxin B 1 µg/mL,1.04
CCOC(=O)C1(CC2CC2)CCN(Cc2cnc(-c3ccc(OC)cc3)nc2)CC1,bacterial growth OD600,polymyxin B 0.75 µg/mL,0.696
CCOC(=O)c1n[nH]cc1CN1CCC(Cc2cccc(OC)c2)(C(=O)OCC)CC1,bacterial growth OD600,polymyxin B 0.75 µg/mL,0.769
O=C(NCc1cccc2[nH]ccc12)C1CCCN(C2CCN(C(=O)C3CC3)CC2)C1 (stereo unspecified),bacterial growth OD600,polymyxin B 1 µg/mL,0.884
O=C(Nc1cnn(-c2ccc(C(=O)N3CCCC(c4ccccc4)C3)cc2)c1)c1cccnc1 (stereo unspecified),bacterial growth OD600,polymyxin B 0.75 µg/mL,0.021
COc1ccc(C(=O)NC(C)c2ccccc2)cc1OC1CCN(C(C)=O)CC1 (stereo unspecified),bacterial growth OD600,polymyxin B 1 µg/mL,1
CCc1ccc(CN2CCC(Oc3cc(OC)ccc3C(=O)N3CCCC3)CC2)cc1,bacterial growth OD600,polymyxin B 1 µg/mL,1.24
O=C(NCCc1cnccn1)c1coc(COc2ccc(F)cc2Cl)n1,bacterial growth OD600,polymyxin B 1 µg/mL,0.938
CCOC(=O)C1(Cc2ccc(F)cc2F)CCCN(C(=O)c2ccc(OC)c(F)c2)C1 (stereo unspecified),bacterial growth OD600,polymyxin B 1 µg/mL,0.021
O=C(Nc1cccc(-c2ccc(F)cc2)c1)C1CCCN(C(=O)c2cn[nH]c2)C1 (stereo unspecified),bacterial growth OD600,polymyxin B 1 µg/mL,0.952
O=C(CC1CC1)NC1CC(=O)N(CCc2cccc(Cl)c2)C1 (stereo unspecified),bacterial growth OD600,polymyxin B 1 µg/mL,0.929
COc1ccc(CN2C(=O)O[C@@H]3CN(Cc4ccccc4F)C[C@@H]32)cc1OC,bacterial growth OD600,polymyxin B 1 µg/mL,1.16
COc1cc(CC2(CCC(=O)NCc3c(F)ccc(C)c3F)CCC(=O)N2)ccc1F (stereo unspecified),bacterial growth OD600,polymyxin B 0.75 µg/mL,0.832
COCC1CCN(C(=O)c2cc(COc3c(C)cccc3C)on2)C1 (stereo unspecified),bacterial growth OD600,polymyxin B 1 µg/mL,0.987
COc1ccc(Cl)cc1NC(=O)CCC1CCCN(C(=O)Cc2c(C)noc2C)C1 (stereo unspecified),bacterial growth OD600,polymyxin B 1 µg/mL,0.885

# Random excerpt: two records from the list.
smiles,measurement,setting,value
CCc1ccc(CN2CCC(Oc3cc(OC)ccc3C(=O)N3CCCC3)CC2)cc1,bacterial growth OD600,polymyxin B 1 µg/mL,1.24
O=C(NCc1cccc2[nH]ccc12)C1CCCN(C2CCN(C(=O)C3CC3)CC2)C1 (stereo unspecified),bacterial growth OD600,polymyxin B 1 µg/mL,0.884
